Laboratory results taken from patent US20200392228A1.
Substitutions are numbered along the chain they refer to. Results are given in words; binding and its absence hold for the method and conditions named. Some binding calls cover weakened binding; strength is not graded here.

Protein sequences, listed by entry. Tags and fused reporters are not part of them. Lines headed by an entry give the natural chain unless they say otherwise; changes in a name come on top. Residues count along the entry.
UniProt Q13477: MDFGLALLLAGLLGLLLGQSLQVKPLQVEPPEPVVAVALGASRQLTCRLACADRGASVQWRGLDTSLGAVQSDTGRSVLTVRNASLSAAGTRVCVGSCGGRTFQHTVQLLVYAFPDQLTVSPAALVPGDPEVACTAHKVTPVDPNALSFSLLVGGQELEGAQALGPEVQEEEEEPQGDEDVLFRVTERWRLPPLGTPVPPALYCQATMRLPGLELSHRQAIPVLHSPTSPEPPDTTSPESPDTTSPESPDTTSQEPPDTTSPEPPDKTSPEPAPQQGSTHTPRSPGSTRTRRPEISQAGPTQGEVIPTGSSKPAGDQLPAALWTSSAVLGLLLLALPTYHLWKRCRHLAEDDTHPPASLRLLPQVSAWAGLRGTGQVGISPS
human MAdCAM expressed on cells: residues 19-382 of Q13477
human MAdCAM protein: residues 19-317 of Q13477
UniProt Q61826, residues 22-405: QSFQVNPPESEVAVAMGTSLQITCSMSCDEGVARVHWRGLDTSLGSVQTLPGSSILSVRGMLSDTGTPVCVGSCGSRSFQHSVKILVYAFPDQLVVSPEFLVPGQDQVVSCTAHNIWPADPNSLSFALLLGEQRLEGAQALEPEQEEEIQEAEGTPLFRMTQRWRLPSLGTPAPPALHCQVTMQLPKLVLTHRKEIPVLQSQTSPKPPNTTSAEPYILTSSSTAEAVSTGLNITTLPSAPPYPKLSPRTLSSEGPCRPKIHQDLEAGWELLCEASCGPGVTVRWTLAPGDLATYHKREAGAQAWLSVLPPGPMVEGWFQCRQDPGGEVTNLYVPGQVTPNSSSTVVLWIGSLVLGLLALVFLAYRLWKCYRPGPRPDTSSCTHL

B1: MAdCAM antibody Clone ID 55 of Table 7 (IgG) (antibody, V domains shown)
VH: EVQLLESGGGLVQPGGSLRLSCAASGFTFDDFAMHWVRQAPGKGLEWVSGISGNGDSRYYADSVKGRFTISRDNSKNTLYLQMNSLRAEDTAVYYCARDASYGGNYGMDVWGQGTTVTVSS
VL: DIQMTQSPSSLSASVGDRVTITCQASQDIRNYLNWYQQKPGKAPKLLIYKASTLESGVPSRFSGSGSGTDFTLTISSLQPEDFATYYCQQANSFPLTFGPGTKVDIK
B2: MAdCAM antibody Clone ID 63 of Table 7 (IgG) (antibody, V domains shown)
VH: EVQLLESGGGLVQPGGSLRLSCAASGFTFNNYGMNWVRQAPGKGLEWVSRINSDGSSTSYADSVKGRFTISRDNSKNTLYLQMNSLRAEDTAVYYCARGAYYYYYMDVWGQGTLVTVSS
VL: EIVMTQSPATLSVSPGERATLSCRASQSVSGSYLAWYQQKPGQAPRLLIYATSSRASGIPARFSGSGSGTEFTLTISSLQSEDFAVYYCQQYYSGLTFGQGTKVEIK
B3: MAdCAM antibody Clone ID 2 of Table 7 (IgG) (antibody, V domains shown)
VH: QVQLVQSGAEVKKPGASVKVSCKASGYPFIGYYLHWVRQAPGQGLEWMGIINPSGGSTSYAQKFQGRVTMTRDTSTSTVYMELSSLRSEDTAVYYCAREGRLSYGMDAWGQGTLVTVSS
VL: DIQMTQSPSSLSASVGDRVTITCRASQSISSYLAWYQQKPGKAPKLLIYGASTLESGVPSRFSGSGSGTDFTLTISSLQPEDFATYYCQQTWGPPFTFGQGTKLEIK
B4: MAdCAM antibody Clone ID 3 of Table 7 (IgG) (antibody, V domains shown)
VH: B3 VH with Y32Q
VL: B3 VL
B5: MAdCAM antibody Clone ID 10 of Table 7 (IgG) (antibody, V domains shown)
VH: EVQLLESGGGLVQPGGSLRLSCAASGFMFGDYAMHWVRQAPGKGLEWVSAISGSGGSTYYADSVKGRFTISRDNSKNTLYLQMNSLRAEDTAVYYCAKDLVVAGIWYFDLWGRGTLVTVSS
VL: B3 VL with S28G, S31N, Y32N, A34N, G50D, T53S, W92H, G93S, P94F, F96S
B6: MAdCAM antibody Clone ID 54 of Table 7 (IgG) (antibody, V domains shown)
VH: QVQLVQSGAEVKKPGSSVKVSCKASGGTLSRYGVSWVRQAPGQGLEWMGGIIPIFGTTNYAQKFQGRVTITADESTSTAYMELSSLRSEDTAVYYCARDRVYYDSSGYPTWYFDLWGRGTLVTVSS
VL: EIVMTQSPATLSVSPGERATLSCRASQSVSSSYLAWYQQKPGQAPRLLIYGASTRATGIPARFSGSGSGTEFTLTISSLQSEDFAVYYCQQYGSSPITFGQGTKVEIK
B7: MAdCAM antibody Clone ID 56 of Table 7 (IgG) (antibody, V domains shown)
VH: EVQLVESGGGLVKPGGSLRLSCAASGFTFSSYWMSWVRQAPGKGLEWVSAIGTGGGTYYAAPVKGRFTISRDDSKNTLYLQMNSLKTEDTAVYYCAREWLVPYYGMDVWGQGTTVTVSS
VL: B3 VL with S31R, Y32W, T53N, E55Q, T91S, W92Y, G93S, P94T, F96W, L104V
B8: MAdCAM antibody Clone ID 61 of Table 7 (IgG) (antibody, V domains shown)
VH: QVQLVQSGAEVKKPGASVKVSCKASGDTFTGYYIHWVRQAPGQGLEWMGWINPNSGGTNYAQKFQGRVTMTRDTSTSTVYMELSSLRSEDTAVYYCARSGLWLGSYYGMDVWGQGTLVTVSS
VL: DIQMTQSPSSLSASVGDRVTITCRASQTISIWLAWYQQKPGKAPKLLIYDASTLQSGVPSRFSGSGSGTDFTLTISSLQPEDFATYYCQQYSSYPLTFGQGTKVEIK
B9: MAdCAM antibody Clone ID 62 of Table 7 (IgG) (antibody, V domains shown)
VH: QVQLVQSGAEVKKPGASVKVSCKASGYTFTSYDINWVRQAPGQGLEWMGWINPNSGTTGYAQKFQGRVTMTRDTSTSTVYMELSSLRSEDTAVYYCARSPYYYYGMDVWGQGTTVTVSS
VL: DIQMTQSPSSLSASVGDRVTITCRASHFISRWVAWYQQKPGKAPKLLIYAASTLQSGVPSRFSGSGSGTDFTLTISSLQPEDFATYYCQQSYSGISFGPGTKVDIK
B10: MAdCAM antibody Clone ID 64 of Table 7 (IgG) (antibody, V domains shown)
VH: EVQLLESGGGLVQPGGSLRLSCAASGFTFSNSDMNWVRQAPGKGLEWVAHIWNDGSQKYYADSVKGRFTISRDNSKNTLYLQMNSLRAEDTAVYYCARDRTDPGYSSAMDVWGQGTTVTVSS
VL: B1 VL with Q24R, N34G, K50D, T53S, S56T, N92T, F94L, P100G, D105E
B11: MAdCAM antibody Clone ID 66 of Table 7 (IgG) (antibody, V domains shown)
VH: QVQLVQSGAEVKKPGASVKVSCKASGYTFTGHYMHWVRQAPGQGLEWMGIINPSGGSTSYAQKFQGRVTMTRDTSTSTVYMELSSLRSEDTAVYYCARDGAWFGEEYYYGMDVWGQGTTVTVSS
VL: DIQMTQSPSSLSASVGDRVTITCRASQGISNWLAWYQQKPGKAPKLLIYDASNLETGVPSRFSGSGSGTDFTLTISSLQPEDFATYYCQQYYSFPLYTFGQGTKVEIK
B12: MAdCAM antibody Clone ID 67 of Table 7 (IgG) (antibody, V domains shown)
VH: QVQLVQSGAEVKKPGASVKVSCKASGYTFTGYYMHWVRQAPGQGLEWMGMIYPRDGSTSYAQKFQGRVTMTRDTSTSTVYMELSSLRSEDTAVYYCAMTGWGYGMDVWGKGTTVTVSS
VL: B8 VL with T28G, S30N, I31N, W32Y, Y91S, S92Y, Y94A, L96P, V104L
B13: MAdCAM antibody Clone ID 68 of Table 7 (IgG) (antibody, V domains shown)
VH: EVQLLESGGGLVQPGGSLRLSCAASGFTFGDYAMSWVRQAPGKGLEWVAVVSYDGTNKYYADSVKGRFTISRDNSKNTLYLQMNSLRAEDTAVYYCAKDICSSTSCYFDLWGRGTLVTVSS
VL: DIQMTQSPSSLSASVGDRVTITCRASQNINNYVNWYQQKPGKAPKLLIYDASNLETGVPSRFSGSGSGTDFTLTISSLQPEDFATYYCQQANSFPPTFGQGTRLEIK
B14: MAdCAM antibody Clone ID 69 of Table 7 (IgG) (antibody, V domains shown)
VH: QVQLVQSGAEVKKPGASVKVSCKASGYTFTSYYMHWVRQAPGQGLEWMGIIDPSGGSTSYAQKFQGRVTMTRDTSTSTVYMELSSLRSEDTAVYYCAREEWSSGGVGYFDYWGQGTLVTVSS
VL: DIQMTQSPSSLSASVGDRVTITCRASQGISSYLAWYQQKPGKAPKLLIYATSSLQTGVPSRFSGSGSGTDFTLTISSLQPEDFATYYCQQTYSIPITFGQGTRLEIK
B15: MAdCAM antibody Clone ID 70 of Table 7 (IgG) (antibody, V domains shown)
VH: QVQLVQSGAEVKKPGASVKVSCKASGYPFTDYYMHWVRQAPGQGLEWMGWIKPNSGDTEYAQKFQGRVTMTRDTSTSTVYMELSSLRSEDTAVYYCARDRFVGKPDYYYYGMDVWGQGTMVTVSS
VL: B14 VL with G28S, S31V, Y32W, T51A, T56S, T91S, S93D, I94T, I96Y, R103K
B16: MAdCAM antibody Clone ID 71 of Table 7 (IgG) (antibody, V domains shown)
VH: QVQLVQSGAEVKKPGASVKVSCKASGYTFTSYYMHWVRQAPGQGLEWMGIINPSGGSTSYAQKFQGRVTMTRDTSTSTVYMELSSLRSEDTAVYYCARDSVAGTGGRYYGMDVWGQGTLVTVSS
VL: B14 VL with S31N, L33F, T51A, T56G, T91S, I94L, I96Y, R103K
B17: MAdCAM antibody Clone ID 72 of Table 7 (IgG) (antibody, V domains shown)
VH: QVQLVQSGAEVKKPGASVKVSCKASGYTFTSYYMHWVRQAPGQGLEWMGVINPIGGTTTYAQKFQGRVTMTRDTSTSTVYMELSSLRSEDTAVYYCASGAPSYYYYGMDVWGQGTLVTVSS
VL: B14 VL with G28S, A34N, A50G, S53Y, Q55A, T91S, I94T, I96L, R103K, L104V
B18: MAdCAM antibody Clone ID 73 of Table 7 (IgG) (antibody, V domains shown)
VH: QVQLVQSGAEVKKPGASVKVSCKASGYTFTSNYVHWVRQAPGQGLEWMGRINPHSGDTSYAQKFQGRVTMTRDTSTSTVYMELSSLRSEDTAVYYCARAGQLWSDWYFDLWGRGTLVTVSS
VL: B1 VL with K50A, S52T, T53A, E55R, S56T, A91S, N92Y, F94H, P100Q, D105E
B19: MAdCAM antibody Clone ID 77 of Table 7 (IgG) (antibody, V domains shown)
VH: EVQLLESGGGLVQPGGSLRLSCAASEFTFSNAWMSWVRQAPGKGLEWVASISSTSAYIDYADSVKGRFTISRDNSKNTLYLQMNSLRAEDTAVYYCAREVVGATTFDYWGQGTLVTVSS
VL: B14 VL with G28S, S31T, Y32W, T51A, T56S, T91A, Y92N, S93A, I94F, I96P
B20: MAdCAM antibody Clone ID 80 of Table 7 (IgG) (antibody, V domains shown)
VH: EVQLLESGGGLVQPGGSLRLSCAASGFTFDDYAMHWVRQAPGKGLEWVSAISGSGGSTYYADSVKGRFTISRDNSKNTLYLQMNSLRAEDTAVYYCAKDLGVVVPAALDYWGQGTTVTVSS
VL: B1 VL with R30S, Y32H, K50D, T53N, S56A, A91S, N92Y, F94T, P100G, D105E
B21: MAdCAM antibody Clone ID 81 of Table 7 (IgG) (antibody, V domains shown)
VH: EVQLLESGGGLVKPGGSLRLSCAASGFAFSSHWMHWVRQAPGKGLEWVAGTSGSGESRDYADFVKGRFTISRDDSKNTLYLQMNSLKTEDTAVYYCARETYYYYYMDVWGKGTTVTVSS
VL: DIQMTQSPSSLSASVGDRVTITCRASQGISNYLAWYQQKPGKAPKLLIYDAANLEGGVPSRFSGSGSGTDFTLTISSLQPEDFATYYCQQSDIFPPTFGQGTKVEIK
B22: MAdCAM antibody Clone ID 12 of Table 6 (scFv) (scFv)
scFv: QVQLVQSGAEVKKPGASVKVSCKASGYTFTGYYMHWVRQAPGQGLEWMGWIGPNSGDTNYAQKFQGRVTMTRDTSTSTVYMELSSLRSEDTAVYYCARDLDHNWYFDLWGRGTLVTVSSGGGGSGGGGSGGGGSGGGGSDIVMTQSPLSLPVTPGEPASISCRSSQSLLHSNGYNYLDWYLQKPGQSPQLLIYSSSNRAPGVPDRFSGSGSGTDFTLKISRVEAEDVGVYYCMQALHIPLTFGGGTKVEIK
B23: MAdCAM antibody Clone ID 25 of Table 6 (scFv) (scFv)
scFv: QVQLVQSGAEVKKPGASVKVSCKASGYTLTTWYMYWVRQAPGQGLEWMGWINPNRGATNYAQKFQGRVTMTRDTSTSTVYMELSSLRSEDTAVYYCAKGDLWGAMDVWGQGTLVTVSSGGGGSGGGGSGGGGSGGGGSDIQMTQSPSSLSASVGDRVTITCRASDNIGSWLAWYQQKPGKAPKLLIYAASSLQSGVPSRFSGSGSGTDFTLTISSLQPEDFATYYCQQGYSTPPTFGQGTKVEIK
B24: MAdCAM antibody Clone ID 30 of Table 6 (scFv) (scFv)
scFv: B23 scFv

The binders below were run against human MAdCAM protein (human) (UniProt Q13477) (assay: Octet).

binding, binds:
B1
B2

Each binder was assayed against human MAdCAM expressed on cells (human) (UniProt Q13477) (assay: cell binding).

binding, binds:
B3
B4
B5
B6
B1
B7
B8
B9
B2
B10
B11
B12
B13
B14
B15
B16
B17
B18
B19
B20
B21
B22
B23
B24

What follows are binders tested against mouse MAdCAM expressed on cells (mouse) (UniProt Q61826) (assay: cell binding).

binding, binds:
B3
B4
B5
B19
B21
